Construct, isoform or probe ends are uncertain for at least one entry. No signal at the amounts used counts as a negative. At least one verdict rests on a figure or table, not on a statement of the authors.

Chains of the proteins cited; added tags and fusions are not shown. Lines headed by an entry give the natural chain unless they say otherwise; changes in a name come on top.
UniProt O65665: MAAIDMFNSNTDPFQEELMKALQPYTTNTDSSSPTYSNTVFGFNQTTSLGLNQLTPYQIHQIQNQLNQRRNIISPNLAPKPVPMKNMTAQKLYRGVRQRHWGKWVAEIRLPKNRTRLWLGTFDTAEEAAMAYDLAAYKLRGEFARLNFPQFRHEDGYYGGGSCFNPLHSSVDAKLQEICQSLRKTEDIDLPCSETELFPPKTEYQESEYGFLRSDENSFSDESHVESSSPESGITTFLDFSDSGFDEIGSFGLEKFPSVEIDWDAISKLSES

The series has as its target AtERF60 (GST fusion) (Arabidopsis thaliana) (UniProt O65665). Nature of the series: EMSA. For orientation: Mobility shift assays separate free from complexed probe on a gel.
On to “AGAAGCCACCAGATAGCCACCTGAGCCACCCT (double strand) [GCC (M)]”, for which the binding result is “no binding”.

With “AGAACGTGAGATACGTGTGACGTGCT (double strand) [ABRE-2]”, the binding result is “no binding”.

As for “AGAACCGACAGATACCGACTGGCCGCCCT (double strand) [DRE-2]”, the binding result was “binds”.

For the sequence “AGAACCTACAGATACCTACTGACCTACCT (double strand) [DRE-2 (M)]”, the binding result is recorded as “no binding”.

For the sequence “AGAGCCGACAGATGCCGACTGGCCGACCT (double strand) [DRE-1]”, the binding result is “binds”.

In the case of “AGAAGCCGCCAGATAGCCGCCTGAGCCGCCCT (double strand)”, the binding result is on record as “binds”.

Consider “AGAGCCTACAGATGCCTACTGGCCTACCT (double strand) [DRE-1 (M)]”, for which the binding result was “no binding”.

With “AGAACGTCAGATACGTCTGACGTCCT (double strand) [ABRE-1]”, the binding result was “no binding”.

Take “AGAACATCAGATACATCTGACATCCT (double strand) [ABRE-1 (M) / ABRE-2 (M) (same printed sequence)]”: the binding result is given as “no binding”.

Values taken from doi:10.1101/2021.12.29.474403.
